Results from patent US7973061B2, “Anaplastic lymphoma kinase modulators and methods of use” (Exelixis, Inc., priority 2004, dated 2011).
The structures given here were assigned with low confidence; some may be wrong.

Amino acid sequences for entries named in this document (tags omitted). Residues count along the entry.
UniProt Q9UM73, 1098-1410 limits assumed: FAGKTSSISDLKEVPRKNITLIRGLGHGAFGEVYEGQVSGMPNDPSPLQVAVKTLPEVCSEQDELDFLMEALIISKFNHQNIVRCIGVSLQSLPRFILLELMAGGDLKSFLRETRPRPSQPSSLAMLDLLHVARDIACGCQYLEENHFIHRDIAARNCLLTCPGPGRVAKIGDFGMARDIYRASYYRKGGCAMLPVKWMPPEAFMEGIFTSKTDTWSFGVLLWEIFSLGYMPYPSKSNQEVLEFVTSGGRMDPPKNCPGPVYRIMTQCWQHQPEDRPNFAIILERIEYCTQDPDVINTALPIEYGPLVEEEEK

Target: ALK (baculovirus expressed human ALK kinase domain F1098-K1410) (Homo sapiens, UniProt Q9UM73)
Settings: read-out: ALK IC50; 1 μM ATP, 4 μM poly-AEKY, 12 nM ALK, 2 hours at ambient temperature

Compound CCc1ccc(CCNC(=O)c2csc(CNC(=O)COc3ccc(OC(F)(F)F)cc3)n2)cc1 has an IC50 of under 50 nM.
